Experimental data taken from patent US10716783B2, “Prolylhydroxylase/ATF4 inhibitors and methods of use for treating neural cell injury or death and conditions resulting therefrom” (CORNELL UNIVERSITY, priority 2013, dated 2020).
Entries after “also recorded” stand apart in the source; their conditions may differ.

Experiments:
[1] = system: intracerebral hemorrhage (collagenase into the striatum); test: Collagenase-induced ICH in mice; assay type: in vivo; conditions: 30 mg/kg; seven days following ICH; x-ray fluorescence spectroscopy
Procedure: FIGS. 4A-4N. Adaptoquin delivered post-injury reduces cell death and enhances functional recovery post injury in mice and rats. Adaptoquin's effects in mice are not associated with global shifts of iron out of the brain. FIG. 4A: Experimental design for schedule of delivery of adaptaquin post-ICH. 30 mg/kg was delivered post-injury and then daily for seven days during which behavioral analysis was done. Mice were sacrificed at day 7 for qPCR and Fluoro-jade staining. […] FIG. 4J: Protocol for adaptoquin treatment of rats with ICH. ICH is modeled by autologous blood infusion and not collagenase in these studies. Behavior is tracked by a single pellet reaching task out to 28 days, but the schedule of infusion is similar to what is used in mice-2 hrs post blood infusion and then daily out to seven days. Behavior is monitored before, from 9-11 days and from 25-28 days. […] FIG. 4L: Protocol for evaluating the total concentrations of iron and zinc in brain following ICH in vehicle and adaptoquin treated mice. FIGS. 4M, 4N: Pseudocolored sections of collagenase induced ICH in mice after 7 days. […] These studies are consistent with the notion that adaptoquin works by inhibiting a specific metalloenzyme rather than global movement of metal ions. […] Total iron levels were monitored in brain sections from vehicle- and adaptoquin-treated (30 mg/kg) mice seven days following ICH.

[2] = Total iron content in neurons; assay type: cell-based; conditions: mass spectrometry / inductively coupled plasma optical emission spectroscopy

Structure (SMILES)	Total iron in brain [1]	Total zinc in brain [1]	Total iron in neurons at protective concentrations [2]
Oc1cccnc1NC(c1ccc(Cl)cc1)c1ccc2cccnc2c1O (stereo not drawn) [adaptoquin]	no differences; also recorded: do not change	no differences; also recorded: do not change	
Cc1cc(C2CCCCC2)n(O)c(=O)c1 [cyclopirox]			did not correlate with a significant change in total cellular iron levels; also recorded: not associated with significant (p>0.05) reductions in total iron
